The text below walks through data of PMC9213445.

The chains behind the UniProt entries cited, without tags or fusion partners.
UniProt P31153: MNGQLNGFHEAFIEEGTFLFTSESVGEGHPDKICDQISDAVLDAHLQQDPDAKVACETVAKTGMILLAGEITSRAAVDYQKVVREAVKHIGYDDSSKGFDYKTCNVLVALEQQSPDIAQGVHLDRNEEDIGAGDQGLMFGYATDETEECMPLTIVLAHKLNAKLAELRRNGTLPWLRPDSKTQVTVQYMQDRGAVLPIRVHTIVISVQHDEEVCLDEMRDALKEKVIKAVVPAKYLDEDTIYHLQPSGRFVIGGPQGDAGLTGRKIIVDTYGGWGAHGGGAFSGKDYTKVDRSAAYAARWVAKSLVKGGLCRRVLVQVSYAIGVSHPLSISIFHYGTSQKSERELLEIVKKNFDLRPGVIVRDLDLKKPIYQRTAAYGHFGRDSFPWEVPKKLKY

No constants are given. Whether binding was seen depends on the method and setting. In cells and extracts the contact can be indirect. Some entries that bind do so weakly or less than the wild type.

The test has as its target T1, VCIP135 (endogenous, immunoprecipitated) (UniProt Q96JH7).
T1 sequence: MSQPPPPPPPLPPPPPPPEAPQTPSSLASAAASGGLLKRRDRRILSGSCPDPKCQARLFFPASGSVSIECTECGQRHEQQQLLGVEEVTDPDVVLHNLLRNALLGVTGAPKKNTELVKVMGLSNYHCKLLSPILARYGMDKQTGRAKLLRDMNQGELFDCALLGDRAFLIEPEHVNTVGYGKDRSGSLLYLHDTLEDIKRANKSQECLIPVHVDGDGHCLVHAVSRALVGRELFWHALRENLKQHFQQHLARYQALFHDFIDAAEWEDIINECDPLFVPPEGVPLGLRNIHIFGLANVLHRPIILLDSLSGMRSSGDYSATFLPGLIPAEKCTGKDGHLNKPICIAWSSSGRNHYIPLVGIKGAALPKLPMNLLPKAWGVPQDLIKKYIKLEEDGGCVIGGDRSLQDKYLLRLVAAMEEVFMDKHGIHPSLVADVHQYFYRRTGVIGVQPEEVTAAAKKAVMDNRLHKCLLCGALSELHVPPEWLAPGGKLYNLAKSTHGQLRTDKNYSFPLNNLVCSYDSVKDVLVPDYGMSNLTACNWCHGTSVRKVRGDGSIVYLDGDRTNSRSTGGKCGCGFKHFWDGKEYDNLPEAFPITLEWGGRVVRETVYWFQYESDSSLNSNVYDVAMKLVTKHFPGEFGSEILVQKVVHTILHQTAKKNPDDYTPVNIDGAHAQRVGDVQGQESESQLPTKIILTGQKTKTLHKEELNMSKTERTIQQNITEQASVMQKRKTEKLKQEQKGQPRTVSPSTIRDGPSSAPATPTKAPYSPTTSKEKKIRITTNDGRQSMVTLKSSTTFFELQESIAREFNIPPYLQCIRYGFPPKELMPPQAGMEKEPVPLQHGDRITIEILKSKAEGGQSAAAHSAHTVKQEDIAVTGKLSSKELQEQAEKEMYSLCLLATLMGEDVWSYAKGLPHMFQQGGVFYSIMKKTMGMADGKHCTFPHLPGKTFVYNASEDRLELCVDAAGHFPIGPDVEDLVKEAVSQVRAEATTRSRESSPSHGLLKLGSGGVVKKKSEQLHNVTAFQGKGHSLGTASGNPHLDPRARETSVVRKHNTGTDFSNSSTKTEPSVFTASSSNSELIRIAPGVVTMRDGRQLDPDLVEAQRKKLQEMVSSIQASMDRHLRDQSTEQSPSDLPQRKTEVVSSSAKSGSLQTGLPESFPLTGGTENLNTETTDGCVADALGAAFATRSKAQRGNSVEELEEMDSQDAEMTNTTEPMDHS
Briefly: co-IP; endogenous VCIP135 immunoprecipitated (anti-VCIP135, CST 88153S, Protein G agarose) from lysate in 0.3% Nonidet P40 buffer (150 mM NaCl, 50 mM Tris-HCl, pH 7.5); immunoblot for MATIIα.

“MATIIα (endogenous) (from UniProt P31153 1-395) (enzyme)”: the binding result is given as “binds”.
